Source: paper doi:10.1101/2025.09.18.677107
Results are given in words; binding and its absence hold for the method and conditions named. Binding seen in cells or lysates may run through a third protein. Some binding calls cover weakened binding; strength is not graded here. Sequences can lack the tags named with a protein. Each block holds one binder with its values, some of them ahead of it.

Legend:
[1] = biological target: CYSTEINE-RICH RECEPTOR-LIKE KINASE 7 (CRK7), tagged with mCitrine or mScarlet-I (Arabidopsis thaliana) (UniProt Q8L7G3); assay: FRET or BRET
[2] = biological target: CYSTEINE-RICH RECEPTOR-LIKE KINASE 7 (CRK7), tagged with mCitrine or mScarlet-I (Arabidopsis thaliana) (UniProt Q8L7G3); assay: co-IP
[3] = biological target: T1, CYSTEINE-RICH RECEPTOR-LIKE KINASE 43 (CRK43), mCitrine-tagged (Arabidopsis thaliana) (UniProt Q9CAC3); assay: co-IP
T1 sequence: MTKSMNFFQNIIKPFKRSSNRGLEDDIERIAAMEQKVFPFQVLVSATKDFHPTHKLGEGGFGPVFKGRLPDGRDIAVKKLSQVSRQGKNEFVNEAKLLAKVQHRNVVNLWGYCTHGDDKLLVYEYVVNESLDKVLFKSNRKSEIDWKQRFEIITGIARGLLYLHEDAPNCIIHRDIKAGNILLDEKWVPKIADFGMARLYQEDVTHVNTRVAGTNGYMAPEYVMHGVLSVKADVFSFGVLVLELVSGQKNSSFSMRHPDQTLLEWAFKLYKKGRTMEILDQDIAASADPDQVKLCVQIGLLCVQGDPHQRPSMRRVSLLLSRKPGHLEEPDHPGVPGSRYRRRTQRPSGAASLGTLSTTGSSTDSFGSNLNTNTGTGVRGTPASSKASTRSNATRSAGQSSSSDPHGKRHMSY

binding [1]: binds
binding [2]: binds
B1: CYSTEINE-RICH RECEPTOR-LIKE KINASE 7 (CRK7), tagged with mCitrine or mScarlet-I (receptor, UniProt Q8L7G3 24-659)
chain: QDPRFLAYYCPNATTYSSNSTYLTNLKTLLSSLSSRNASYSTGFQNATVGQALDRVTGLFLCRGDVSPEVCRNCVTFAVNNTFSRCPNQREAVFYYEECILRYSHKNILSTAITNEGEFILRNPNHISPIQNQINQFTNLVLSNMNQIAIEAADNPRKFSTIKTELTALQTFYGLVQCTPDLSRQNCMNCLTSSINRMPFSRIGARQFWPSCNSRYELYDFYNETAIGTPPPPLPPLASPSLSDKSGNSNVVVVAVVVPIIVAVLIFIAGYCFFAKRAKKTYGTTPALDEDDKTTIESLQLDYRAIQAATNDFSENNKIGRGGFGDVYKGTFSNGTEVAVKRLSKTSEQGDTEFKNEVVVVANLRHKNLVRILGFSIEREERILVYEYVENKSLDNFLFDPAKKGQLYWTQRYHIIGGIARGILYLHQDSRLTIIHRDLKASNILLDADMNPKIADFGMARIFGMDQTQQNTSRIVGTYGYMSPEYAMRGQFSMKSDVYSFGVLVLEIISGRKNNSFIETDDAQDLVTHAWRLWRNGTALDLVDPFIADSCRKSEVVRCTHIGLLCVQEDPVKRPAMSTISVMLTSNTMALPAPQQPGFFVRSRPGTNRLDSDQSTTNKSVTVSIDDKSMSDLDPR

binding [3]: binds
B2: CYSTEINE-RICH RECEPTOR-LIKE KINASE 7 (CRK7), as used in the CRK7-CRK43 co-immunoprecipitation (Fig. 4E) (receptor, UniProt Q8L7G3 24-659)
chain: B1 chain
